# The supplement of paper PMC6411743
# Chains of the proteins cited; added tags and fusions are not shown. Lines headed by an entry give the natural chain unless they say otherwise; changes in a name come on top.
# UniProt Q8WVQ1: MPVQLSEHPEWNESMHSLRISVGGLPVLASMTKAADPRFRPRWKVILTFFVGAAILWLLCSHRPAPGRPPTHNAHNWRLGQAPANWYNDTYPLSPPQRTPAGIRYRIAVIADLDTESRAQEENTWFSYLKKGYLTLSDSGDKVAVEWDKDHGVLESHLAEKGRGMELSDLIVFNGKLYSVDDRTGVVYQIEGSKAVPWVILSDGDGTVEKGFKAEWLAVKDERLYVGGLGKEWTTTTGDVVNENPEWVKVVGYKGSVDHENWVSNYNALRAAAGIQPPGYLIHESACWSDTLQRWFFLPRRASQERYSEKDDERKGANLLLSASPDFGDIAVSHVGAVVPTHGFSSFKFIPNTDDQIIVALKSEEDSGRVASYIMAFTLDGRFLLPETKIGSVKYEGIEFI
# UniProt Q8WUX9: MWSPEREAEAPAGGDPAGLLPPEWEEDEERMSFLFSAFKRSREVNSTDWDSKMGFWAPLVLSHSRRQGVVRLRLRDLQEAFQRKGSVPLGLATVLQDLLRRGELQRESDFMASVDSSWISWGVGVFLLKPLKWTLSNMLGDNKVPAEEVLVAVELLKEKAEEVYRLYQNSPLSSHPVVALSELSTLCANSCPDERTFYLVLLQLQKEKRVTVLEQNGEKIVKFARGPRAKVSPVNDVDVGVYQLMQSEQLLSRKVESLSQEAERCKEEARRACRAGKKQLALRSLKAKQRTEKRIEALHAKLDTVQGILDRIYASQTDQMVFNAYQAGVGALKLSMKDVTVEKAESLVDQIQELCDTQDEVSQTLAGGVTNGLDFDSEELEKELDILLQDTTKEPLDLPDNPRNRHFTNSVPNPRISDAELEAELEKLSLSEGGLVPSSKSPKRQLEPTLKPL
# UniProt Q92820: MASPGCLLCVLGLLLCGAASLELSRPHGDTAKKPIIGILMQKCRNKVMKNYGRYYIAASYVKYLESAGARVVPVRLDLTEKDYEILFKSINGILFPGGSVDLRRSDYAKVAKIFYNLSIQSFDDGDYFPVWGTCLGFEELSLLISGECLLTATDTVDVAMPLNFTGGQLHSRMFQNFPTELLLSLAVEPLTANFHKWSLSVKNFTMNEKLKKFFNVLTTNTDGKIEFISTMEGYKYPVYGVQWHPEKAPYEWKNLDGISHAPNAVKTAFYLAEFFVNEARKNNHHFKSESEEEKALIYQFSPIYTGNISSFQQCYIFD
# UniProt Q8TBB5: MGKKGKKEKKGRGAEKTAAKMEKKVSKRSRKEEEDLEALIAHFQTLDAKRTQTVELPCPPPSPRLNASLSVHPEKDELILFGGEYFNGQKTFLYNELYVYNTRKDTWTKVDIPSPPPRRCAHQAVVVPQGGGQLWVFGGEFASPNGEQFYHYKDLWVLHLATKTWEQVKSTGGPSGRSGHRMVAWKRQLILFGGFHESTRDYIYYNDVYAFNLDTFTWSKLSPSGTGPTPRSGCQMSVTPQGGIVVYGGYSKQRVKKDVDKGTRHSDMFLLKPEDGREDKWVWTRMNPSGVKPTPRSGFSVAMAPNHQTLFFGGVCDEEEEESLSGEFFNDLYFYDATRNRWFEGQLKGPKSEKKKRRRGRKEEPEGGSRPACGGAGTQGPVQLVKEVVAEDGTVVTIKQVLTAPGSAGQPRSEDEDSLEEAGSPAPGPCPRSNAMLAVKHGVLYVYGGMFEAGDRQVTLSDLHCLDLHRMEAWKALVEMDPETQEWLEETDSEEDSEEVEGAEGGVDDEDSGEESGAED
# UniProt Q92974: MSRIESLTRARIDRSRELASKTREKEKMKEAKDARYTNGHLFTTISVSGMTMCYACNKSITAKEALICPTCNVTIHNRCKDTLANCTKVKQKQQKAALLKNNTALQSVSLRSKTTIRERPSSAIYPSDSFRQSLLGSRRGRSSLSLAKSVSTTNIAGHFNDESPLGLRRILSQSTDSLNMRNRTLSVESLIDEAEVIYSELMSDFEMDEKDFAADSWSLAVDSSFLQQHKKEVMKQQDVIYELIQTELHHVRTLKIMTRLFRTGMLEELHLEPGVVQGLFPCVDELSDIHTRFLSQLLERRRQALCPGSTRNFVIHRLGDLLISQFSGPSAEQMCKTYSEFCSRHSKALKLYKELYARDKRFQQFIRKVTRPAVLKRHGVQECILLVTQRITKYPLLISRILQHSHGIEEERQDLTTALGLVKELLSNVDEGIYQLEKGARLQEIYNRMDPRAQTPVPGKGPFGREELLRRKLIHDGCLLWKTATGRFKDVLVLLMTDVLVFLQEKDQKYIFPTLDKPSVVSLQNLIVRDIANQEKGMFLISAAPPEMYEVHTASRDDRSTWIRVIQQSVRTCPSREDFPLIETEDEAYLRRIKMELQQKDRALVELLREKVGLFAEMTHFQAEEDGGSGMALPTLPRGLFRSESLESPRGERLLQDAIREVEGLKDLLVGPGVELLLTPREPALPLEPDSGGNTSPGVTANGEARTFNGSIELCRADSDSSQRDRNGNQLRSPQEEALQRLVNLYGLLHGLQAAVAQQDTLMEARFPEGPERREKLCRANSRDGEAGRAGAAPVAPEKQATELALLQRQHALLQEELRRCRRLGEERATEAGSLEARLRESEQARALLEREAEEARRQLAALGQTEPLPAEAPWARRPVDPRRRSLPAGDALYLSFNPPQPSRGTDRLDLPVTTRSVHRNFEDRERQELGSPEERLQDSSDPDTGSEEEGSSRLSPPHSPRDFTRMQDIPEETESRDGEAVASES
# UniProt Q92551: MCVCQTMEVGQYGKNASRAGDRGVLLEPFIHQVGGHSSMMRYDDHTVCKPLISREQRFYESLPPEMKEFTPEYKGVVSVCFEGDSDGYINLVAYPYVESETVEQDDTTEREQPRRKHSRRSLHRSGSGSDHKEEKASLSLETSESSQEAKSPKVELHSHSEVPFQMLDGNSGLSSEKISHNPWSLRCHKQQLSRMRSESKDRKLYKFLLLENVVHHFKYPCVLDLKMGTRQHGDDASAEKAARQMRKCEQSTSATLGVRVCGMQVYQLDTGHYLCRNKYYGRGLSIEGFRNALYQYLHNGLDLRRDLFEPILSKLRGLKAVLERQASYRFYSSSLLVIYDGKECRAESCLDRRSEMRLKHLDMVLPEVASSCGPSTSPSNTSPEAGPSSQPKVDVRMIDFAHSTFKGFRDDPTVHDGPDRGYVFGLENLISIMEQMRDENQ
# UniProt Q96AC1: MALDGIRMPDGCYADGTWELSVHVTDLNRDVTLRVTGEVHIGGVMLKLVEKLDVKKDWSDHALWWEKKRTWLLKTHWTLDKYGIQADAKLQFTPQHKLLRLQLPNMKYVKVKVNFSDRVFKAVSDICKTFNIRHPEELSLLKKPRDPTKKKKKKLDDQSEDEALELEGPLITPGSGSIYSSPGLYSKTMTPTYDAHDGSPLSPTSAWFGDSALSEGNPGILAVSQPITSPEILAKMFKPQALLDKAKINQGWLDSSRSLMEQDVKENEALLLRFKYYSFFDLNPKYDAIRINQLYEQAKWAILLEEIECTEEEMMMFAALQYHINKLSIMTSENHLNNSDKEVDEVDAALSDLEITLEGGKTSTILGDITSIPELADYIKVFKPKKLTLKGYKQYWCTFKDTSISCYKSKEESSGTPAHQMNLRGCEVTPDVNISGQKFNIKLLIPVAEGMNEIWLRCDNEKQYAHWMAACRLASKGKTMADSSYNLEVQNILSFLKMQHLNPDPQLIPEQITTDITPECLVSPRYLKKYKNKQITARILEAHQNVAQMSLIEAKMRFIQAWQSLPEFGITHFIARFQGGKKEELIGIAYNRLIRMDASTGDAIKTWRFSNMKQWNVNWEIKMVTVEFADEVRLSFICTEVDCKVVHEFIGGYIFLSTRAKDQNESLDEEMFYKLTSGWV
# UniProt Q92572: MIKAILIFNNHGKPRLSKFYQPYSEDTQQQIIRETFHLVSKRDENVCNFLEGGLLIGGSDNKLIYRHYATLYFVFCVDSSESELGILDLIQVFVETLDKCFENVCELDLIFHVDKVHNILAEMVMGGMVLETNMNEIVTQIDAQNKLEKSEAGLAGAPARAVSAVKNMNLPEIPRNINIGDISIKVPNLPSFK
# UniProt Q8WUQ7: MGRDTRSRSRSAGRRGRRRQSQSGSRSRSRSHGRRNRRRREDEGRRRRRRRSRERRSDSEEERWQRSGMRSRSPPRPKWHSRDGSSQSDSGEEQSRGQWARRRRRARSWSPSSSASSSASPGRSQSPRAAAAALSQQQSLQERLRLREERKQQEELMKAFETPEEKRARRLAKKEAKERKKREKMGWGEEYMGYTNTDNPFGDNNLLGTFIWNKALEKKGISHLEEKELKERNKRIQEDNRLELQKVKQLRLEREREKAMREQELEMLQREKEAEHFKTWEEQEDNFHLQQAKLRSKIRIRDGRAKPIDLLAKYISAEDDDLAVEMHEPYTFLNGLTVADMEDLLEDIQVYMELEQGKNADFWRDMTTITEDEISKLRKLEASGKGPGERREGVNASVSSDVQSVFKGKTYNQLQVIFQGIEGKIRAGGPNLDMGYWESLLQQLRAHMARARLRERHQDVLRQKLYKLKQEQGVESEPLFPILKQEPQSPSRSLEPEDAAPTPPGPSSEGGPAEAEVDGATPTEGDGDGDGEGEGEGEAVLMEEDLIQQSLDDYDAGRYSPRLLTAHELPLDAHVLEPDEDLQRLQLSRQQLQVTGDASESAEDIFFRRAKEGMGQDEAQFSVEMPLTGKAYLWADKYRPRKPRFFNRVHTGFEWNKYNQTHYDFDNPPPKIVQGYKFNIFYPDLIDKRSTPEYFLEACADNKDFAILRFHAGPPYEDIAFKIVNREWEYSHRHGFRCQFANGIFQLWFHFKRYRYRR
# UniProt Q8WVT3: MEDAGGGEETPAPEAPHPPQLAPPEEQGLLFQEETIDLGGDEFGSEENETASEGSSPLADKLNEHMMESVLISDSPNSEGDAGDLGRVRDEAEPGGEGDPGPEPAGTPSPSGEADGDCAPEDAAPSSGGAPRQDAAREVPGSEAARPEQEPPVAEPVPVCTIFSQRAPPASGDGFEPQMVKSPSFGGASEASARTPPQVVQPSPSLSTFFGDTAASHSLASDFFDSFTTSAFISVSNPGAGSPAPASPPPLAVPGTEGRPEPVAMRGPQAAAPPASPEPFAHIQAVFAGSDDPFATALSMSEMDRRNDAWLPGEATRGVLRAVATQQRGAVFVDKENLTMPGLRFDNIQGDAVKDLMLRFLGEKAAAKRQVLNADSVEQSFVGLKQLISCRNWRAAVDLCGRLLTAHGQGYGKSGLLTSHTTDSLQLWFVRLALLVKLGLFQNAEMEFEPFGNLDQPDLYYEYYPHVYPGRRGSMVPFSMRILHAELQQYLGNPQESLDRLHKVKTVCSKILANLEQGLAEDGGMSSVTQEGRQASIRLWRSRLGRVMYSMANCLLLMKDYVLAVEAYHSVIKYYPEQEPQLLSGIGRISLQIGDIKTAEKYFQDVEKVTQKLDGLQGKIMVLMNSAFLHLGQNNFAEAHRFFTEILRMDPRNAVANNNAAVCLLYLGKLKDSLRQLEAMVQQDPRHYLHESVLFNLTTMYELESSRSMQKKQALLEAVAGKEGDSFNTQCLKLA
# UniProt Q8TEQ8: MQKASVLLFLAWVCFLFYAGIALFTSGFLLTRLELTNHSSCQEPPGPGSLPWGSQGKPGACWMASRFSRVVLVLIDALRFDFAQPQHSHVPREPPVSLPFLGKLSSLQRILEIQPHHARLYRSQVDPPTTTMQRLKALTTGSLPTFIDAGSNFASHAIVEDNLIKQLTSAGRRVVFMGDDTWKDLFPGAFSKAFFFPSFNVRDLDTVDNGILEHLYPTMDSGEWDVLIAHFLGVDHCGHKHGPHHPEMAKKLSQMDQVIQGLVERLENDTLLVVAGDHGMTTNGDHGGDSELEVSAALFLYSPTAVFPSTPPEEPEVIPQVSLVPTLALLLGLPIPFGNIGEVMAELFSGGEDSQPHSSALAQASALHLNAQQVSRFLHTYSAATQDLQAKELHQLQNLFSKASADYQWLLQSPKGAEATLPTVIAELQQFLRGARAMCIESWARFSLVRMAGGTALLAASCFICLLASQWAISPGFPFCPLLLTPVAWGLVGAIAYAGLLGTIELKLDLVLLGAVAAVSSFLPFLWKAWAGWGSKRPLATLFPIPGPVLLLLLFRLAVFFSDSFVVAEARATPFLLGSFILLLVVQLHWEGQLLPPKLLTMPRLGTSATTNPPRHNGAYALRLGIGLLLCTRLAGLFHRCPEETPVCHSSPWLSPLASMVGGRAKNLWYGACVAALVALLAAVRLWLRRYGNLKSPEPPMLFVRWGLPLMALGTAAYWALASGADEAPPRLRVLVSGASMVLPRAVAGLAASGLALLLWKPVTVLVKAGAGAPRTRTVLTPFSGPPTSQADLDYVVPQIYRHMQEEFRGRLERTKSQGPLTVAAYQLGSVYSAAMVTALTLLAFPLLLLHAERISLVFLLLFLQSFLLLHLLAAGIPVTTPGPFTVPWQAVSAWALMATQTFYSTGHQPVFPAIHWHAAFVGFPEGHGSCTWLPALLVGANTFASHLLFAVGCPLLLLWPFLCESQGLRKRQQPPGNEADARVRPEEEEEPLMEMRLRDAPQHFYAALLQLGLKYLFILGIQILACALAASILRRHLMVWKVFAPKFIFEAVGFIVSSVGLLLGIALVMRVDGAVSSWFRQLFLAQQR
# ± gives the standard deviation of the averaged measurements. The entries are a selection whose mix differs from that of the whole data set. Most values lie at the level of the controls, where differences are scatter.
# Compound: Nc1ncnc2c1ncn2[C@@H]1O[C@H](COP(=O)(O)OP(=O)(O)OP(=O)(O)O)[C@@H](O)[C@H]1O [adenosine triphosphate]
# Assay: NP40-soluble protein abundance relative to vehicle (solubility fold change) (ratio); higher = more soluble protein in presence of ATP
# In short: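 Jurkat crude lysate prepared with a Dounce homogeniser was treated at eight concentrations spanning 0.1 to 10 mM, 10 min at room temperature then 3 min at 37 °C. Solubilisation with 0.8% NP40 and benzonase and ultracentrifugation preceded TMT labelling of the supernatant for LC-MS/MS. Fold change against the detergent-processed vehicle was determined per replicate from vsn-normalised intensities, across three independent experiments.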
target,measurement,setting,value
UniProt Q8WVQ1 and related entries,NP40-soluble protein abundance,concentration: 0.1mM,1.05 ± 0.038
same,NP40-soluble protein abundance,concentration: 0.5mM,0.994 ± 0.048
UniProt Q8TEA7 and related entries,NP40-soluble protein abundance,concentration: 0.1mM,1 ± 0.086
same,NP40-soluble protein abundance,concentration: 0.5mM,0.986 ± 0.084
UniProt Q93008 and related entries,NP40-soluble protein abundance,concentration: 0.1mM,1.02 ± 0.038
same,NP40-soluble protein abundance,concentration: 0.5mM,1.024 ± 0.0064
UniProt Q96AJ9 and related entries,NP40-soluble protein abundance,concentration: 0.1mM,0.953 ± 0.028
same,NP40-soluble protein abundance,concentration: 0.5mM,0.914 ± 0.08
CHMP7 (UniProt Q8WUX9),NP40-soluble protein abundance,concentration: 0.1mM,1.003 ± 0.0066
same,NP40-soluble protein abundance,concentration: 0.5mM,0.991 ± 0.063
GGH (UniProt Q92820),NP40-soluble protein abundance,concentration: 0.1mM,0.974 ± 0.023
same,NP40-soluble protein abundance,concentration: 0.5mM,0.986 ± 0.037
SCFD1 (UniProt Q8WVM8),NP40-soluble protein abundance,concentration: 0.1mM,1.04 ± 0.047
same,NP40-soluble protein abundance,concentration: 0.5mM,1.04 ± 0.051
UniProt Q8WVM7 and related entries,NP40-soluble protein abundance,concentration: 0.1mM,1.05 ± 0.014
same,NP40-soluble protein abundance,concentration: 0.5mM,0.992 ± 0.054
UniProt Q8TBB5 and related entries,NP40-soluble protein abundance,concentration: 0.1mM,1.03 ± 0.06
same,NP40-soluble protein abundance,concentration: 0.5mM,1.05 ± 0.064
NUP133 (UniProt Q8WUM0),NP40-soluble protein abundance,concentration: 0.1mM,1.06 ± 0.067
same,NP40-soluble protein abundance,concentration: 0.5mM,1.09 ± 0.069
UBXN4 (UniProt Q92575),NP40-soluble protein abundance,concentration: 0.1mM,1.01 ± 0.017
same,NP40-soluble protein abundance,concentration: 0.5mM,1.02 ± 0.046
ZNF592 (UniProt Q92610),NP40-soluble protein abundance,concentration: 0.1mM,0.961 ± 0.069
same,NP40-soluble protein abundance,concentration: 0.5mM,0.977 ± 0.072
MRPL24 (UniProt Q96A35),NP40-soluble protein abundance,concentration: 0.1mM,0.98 ± 0.096
same,NP40-soluble protein abundance,concentration: 0.5mM,0.994 ± 0.092
UniProt Q92974 and related entries,NP40-soluble protein abundance,concentration: 0.1mM,0.992 ± 0.037
same,NP40-soluble protein abundance,concentration: 0.5mM,1.01 ± 0.045
IP6K1 (UniProt Q92551),NP40-soluble protein abundance,concentration: 0.1mM,1.08 ± 0.14
same,NP40-soluble protein abundance,concentration: 0.5mM,1.02 ± 0.057
PYROXD1 (UniProt Q8WU10),NP40-soluble protein abundance,concentration: 0.1mM,1.1 ± 0.12
same,NP40-soluble protein abundance,concentration: 0.5mM,1.07 ± 0.079
UniProt Q96AC1 and related entries,NP40-soluble protein abundance,concentration: 0.1mM,1.03 ± 0.063
same,NP40-soluble protein abundance,concentration: 0.5mM,1.05 ± 0.044
UniProt Q93074 and related entries,NP40-soluble protein abundance,concentration: 0.1mM,1.02 ± 0.054
same,NP40-soluble protein abundance,concentration: 0.5mM,1.03 ± 0.041
UniProt Q92572,NP40-soluble protein abundance,concentration: 0.1mM,0.993 ± 0.029
same,NP40-soluble protein abundance,concentration: 0.5mM,0.972 ± 0.02
UniProt Q8WXE1 and related entries,NP40-soluble protein abundance,concentration: 0.1mM,1.05 ± 0.046
same,NP40-soluble protein abundance,concentration: 0.5mM,0.981 ± 0.047
UniProt Q8WUQ7 and related entries,NP40-soluble protein abundance,concentration: 0.1mM,0.983 ± 0.032
same,NP40-soluble protein abundance,concentration: 0.5mM,0.947 ± 0.038
UniProt Q8WVT3,NP40-soluble protein abundance,concentration: 0.1mM,0.979 ± 0.023
same,NP40-soluble protein abundance,concentration: 0.5mM,0.94 ± 0.029
NUP205 (UniProt Q92621),NP40-soluble protein abundance,concentration: 0.1mM,1.06 ± 0.081
same,NP40-soluble protein abundance,concentration: 0.5mM,1.04 ± 0.053
UniProt Q92796-2|Q92796-3,NP40-soluble protein abundance,concentration: 0.1mM,0.991 ± 0.025
same,NP40-soluble protein abundance,concentration: 0.5mM,1.03 ± 0.064
EXOSC8 (UniProt Q96B26),NP40-soluble protein abundance,concentration: 0.1mM,1.05 ± 0.03
same,NP40-soluble protein abundance,concentration: 0.5mM,1.05 ± 0.038
UniProt Q8WYP5 and related entries,NP40-soluble protein abundance,concentration: 0.1mM,1.04 ± 0.026
same,NP40-soluble protein abundance,concentration: 0.5mM,1.08 ± 0.027
same,NP40-soluble protein abundance,concentration: 1mM,1.13 ± 0.037
same,NP40-soluble protein abundance,concentration: 2mM,1.16 ± 0.048
same,NP40-soluble protein abundance,concentration: 4mM,1.28 ± 0.079
same,NP40-soluble protein abundance,concentration: 6mM,1.38 ± 0.096
same,NP40-soluble protein abundance,concentration: 8mM,1.42 ± 0.12
same,NP40-soluble protein abundance,concentration: 10mM,1.53 ± 0.13
CUL5 (UniProt Q93034),NP40-soluble protein abundance,concentration: 0.1mM,1.06 ± 0.077
same,NP40-soluble protein abundance,concentration: 0.5mM,1.05 ± 0.062
UniProt Q8WX93 and related entries,NP40-soluble protein abundance,concentration: 0.1mM,1.02 ± 0.056
same,NP40-soluble protein abundance,concentration: 0.5mM,1.02 ± 0.034
same,NP40-soluble protein abundance,concentration: 1mM,0.978 ± 0.024
same,NP40-soluble protein abundance,concentration: 2mM,0.966 ± 0.046
same,NP40-soluble protein abundance,concentration: 4mM,1.01 ± 0.026
same,NP40-soluble protein abundance,concentration: 6mM,0.97 ± 0.042
same,NP40-soluble protein abundance,concentration: 8mM,0.971 ± 0.044
same,NP40-soluble protein abundance,concentration: 10mM,0.986 ± 0.036
UniProt Q8WUY8 and related entries,NP40-soluble protein abundance,concentration: 0.1mM,1.08 ± 0.045
same,NP40-soluble protein abundance,concentration: 0.5mM,0.958 ± 0.18
same,NP40-soluble protein abundance,concentration: 1mM,1.02 ± 0.085
same,NP40-soluble protein abundance,concentration: 2mM,1.049 ± 0.0036
same,NP40-soluble protein abundance,concentration: 4mM,1.13 ± 0.032
same,NP40-soluble protein abundance,concentration: 6mM,0.966 ± 0.052
same,NP40-soluble protein abundance,concentration: 8mM,1.03 ± 0.067
same,NP40-soluble protein abundance,concentration: 10mM,1.08 ± 0.013
PIGO (UniProt Q8TEQ8),NP40-soluble protein abundance,concentration: 0.1mM,1.05 ± 0.056
same,NP40-soluble protein abundance,concentration: 0.5mM,1.01 ± 0.032
same,NP40-soluble protein abundance,concentration: 1mM,0.991 ± 0.035
same,NP40-soluble protein abundance,concentration: 2mM,1 ± 0.062
same,NP40-soluble protein abundance,concentration: 4mM,0.996 ± 0.02
same,NP40-soluble protein abundance,concentration: 6mM,0.979 ± 0.073
same,NP40-soluble protein abundance,concentration: 8mM,0.983 ± 0.051
same,NP40-soluble protein abundance,concentration: 10mM,1.01 ± 0.039
NANP (UniProt Q8TBE9),NP40-soluble protein abundance,concentration: 0.1mM,1.08 ± 0.045
same,NP40-soluble protein abundance,concentration: 0.5mM,1.04 ± 0.037

# Another view of part of the listing above.
target	measurement	setting	value
UniProt Q93008 and related entries	NP40-soluble protein abundance	concentration: 0.1mM	1.02 ± 0.038
same	NP40-soluble protein abundance	concentration: 0.5mM	1.024 ± 0.0064
UniProt Q96AJ9 and related entries	NP40-soluble protein abundance	concentration: 0.1mM	0.953 ± 0.028
same	NP40-soluble protein abundance	concentration: 0.5mM	0.914 ± 0.08
